Results as given in PMC3167755.

Molecular target: T1, Fur-His6 (CjFur-His6) (Campylobacter jejuni 81-176) (UniProt P0C631)
T1 sequence (looked up): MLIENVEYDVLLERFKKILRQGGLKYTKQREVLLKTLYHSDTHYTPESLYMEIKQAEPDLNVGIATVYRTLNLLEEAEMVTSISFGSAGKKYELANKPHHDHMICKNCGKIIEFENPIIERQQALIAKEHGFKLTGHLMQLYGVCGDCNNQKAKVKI
Assay: EMSA
Details: 10 mM Tris-HCl pH 7.5, 1 mM MgCl2, 0.5 mM DTT, 50 mM KCl, 100 uM MnCl2 (omitted where stated), 1 ug poly(dI-dC), 50 ug BSA, 5% glycerol, 20 ul, ~28 fmol DNA, recombinant protein, residues 1-157, label: digoxigenin on primer DIG_dsbA2X, probe letters rebuilt from the primers and the genome

“CTTATCCATAAAATATAATGTAAAAAATTGATAATTTTATTTCGTAAATTAAAATTATATTTTACTTTTATTGAAAACTATAAAGAATATTTAAAAATTAAATTATTTTATATTATTATCAAAATATACATAAAAATGATAACTTGTGCATTTAAATTTTTTAATCCCCTATTCTTGATTTTTAGTTAAAGTAAATATTCTTAGTTATAAAATTTTTAAGAATATTTTTATTTTAATAGTTTTATAATGATTATTACATAAAAACTTAATAAAAAGTTTTATCAAAACCAAATTTCAAGGAGAAGGTAATGAAATTTCCAGTAAAATTAGCAAGATCTATTGTTGTATGTG (double strand) [dsbA2-dsbB-astA promoter region]”: binds more weakly (100 uM Mn2+, bound only at high protein concentration); binds (no Mn2+, 0-3333 nM Fur).

Tags and fusion partners may be left off the protein sequences shown. Construct, isoform or probe ends are uncertain for at least one entry. Weaker means in comparison with the reference protein, sequence or condition of that experiment.
